Experimental data taken from PubChem BioAssay AID493014 (National Center for Advancing Translational Sciences (NCATS), 2011).
The list shows a part of the results. These are further read-outs of the screen, such as a control signal, another cell line or another target. No call is given for them. Most of these compounds were active or inconclusive in the main read-out, so they are no random draw. Potencies come from curve fits of mixed quality, noted in brackets.

Test: qHTS Assay to Find Inhibitors of Chronic Active B-Cell Receptor Signaling
Conditions: ABC-DLBCL IkBa-CBG/CBR reporter, luminescence ratio (green luciferase fused to IkBa over red control in TMD8 lymphoma cells), 4 h
How it was run: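 Compounds up to 46 uM were incubated four hours with TMD8 cells whose green CBG68 luciferase is fused to IkappaBalpha; red CBR luminescence normalised the signal, and concentration-effect curves were fitted to fusion, red and ratio data.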

[1] = measured here: CBR red luminescence, cell number
[2] = measured here: IkBa-CBG green luminescence

SMILES	AC50 [1]	AC50 [2]
c1ccc(-c2cc(-c3nn4c(-c5ccco5)nnc4s3)c3ccccc3n2)cc1	11.6 µM [falling, partial curve, poor fit]	–
COCc1cc(C)nc2sc(C(=O)Nc3cccc(OC)c3)c(N)c12	20 µM [falling, partial curve, poor fit]	–
O=C(O)c1oc2ccccc2c1CSc1ccc(Cl)cc1	5.62 µM [rising, single point]	–
CCOC(=O)c1[nH]c(C)c(C(=O)N(C)C)c1C	9.2 µM [rising, partial curve]	–
Cc1ccc(O)c(-c2[nH]ncc2C(=O)c2ccc(Br)cc2)c1	20 µM [falling, single point]	–
Cc1c(C(=O)N2CCN(Cc3ccccc3)CC2)sc2ncnc(N3CCOCC3)c12	0.731 µM [falling, partial curve, poor fit]	–
COc1ccc2c(C)c(C(=O)O)oc2c1	7.31 µM [rising, partial curve]	0.651 µM [rising, full curve, poor fit]
Cn1ccnc1SCC(=O)N(C1CCCCC1)C1CCCCC1	0.164 µM [rising, full curve, poor fit]	–
CCOC(=O)N1CCN(C(=O)/C=C/c2ccc(C(C)(C)C)cc2)CC1	0.398 µM [rising, partial curve, poor fit]	–
N=c1n(Cc2ccccc2)c2ccccc2n1CC(O)COc1ccc(Cl)cc1Cl (centres undefined)	17.8 µM [falling, single point]	–
Cc1cccc(C(=O)Nc2nnc(C3=COCCO3)o2)c1	35.5 µM [falling, single point]	35.5 µM [falling, single point]
CC(C)(C)C1CCc2nc(NC(=O)Cc3cn4ccsc4n3)sc2C1 (centres undefined)	29.1 µM [falling, single point]	–
CCOC(=O)c1cc2c(=O)[nH]c(C(Cl)(Cl)Cl)nc2o1	35.5 µM [falling, single point]	–
C/C=C/c1ccc(OCCCCOc2c(OC)cccc2OC)c(OC)c1	6.51 µM [rising, single point]	–
O=[N+]([O-])c1cccc(/C=C/c2nc3ccc([N+](=O)[O-])cc3[nH]2)c1	0.794 µM [rising, full curve, poor fit]	–
Cc1c(C(=O)NC2=NCCS2)oc2ccccc12	6.51 µM [rising, single point]	–
COCCCN1C(=O)c2[nH]nc(-c3ccccc3O)c2C1c1cccc(Cl)c1 (centres undefined)	35.5 µM [falling, single point]	–
COc1cccc(C(=O)Nc2c3c(nn2-c2cccc(C)c2C)CS(=O)C3)c1OC (centres undefined)	0.316 µM [falling, full curve, poor fit]	–
O=C1CSC(c2ccccn2)N1c1ccccc1 (centres undefined)	3.55 µM [falling, single point]	–
Cc1cc(=O)n2[nH]c(SCc3ccccc3)nc2n1	7.31 µM [falling, partial curve]	–
COc1cccc(NC(=O)C(=S)NC2CCCCC2)c1	12.6 µM [falling, partial curve]	–

Shown field by field: 3 of the compounds above
O=C1CSC(c2ccccn2)N1c1ccccc1 (centres undefined)
  AC50 [1]: 3.55 µM [falling, single point]
Cc1cc(=O)n2[nH]c(SCc3ccccc3)nc2n1
  AC50 [1]: 7.31 µM [falling, partial curve]
COc1cccc(NC(=O)C(=S)NC2CCCCC2)c1
  AC50 [1]: 12.6 µM [falling, partial curve]

(more compounds)

SMILES	AC50 [1]	AC50 [2]
CC1CCCC(NC(=S)Nc2cccc(S(=O)(=O)N(C)C)c2)C1C (centres undefined)	0.501 µM [rising, full curve]	–
CN(C)C(=O)CSc1nnc(-c2cccs2)n1-c1ccccc1	25.1 µM [rising, single point]	–
S=C(NCc1ccc2c(c1)OCO2)NCc1ccco1	35.5 µM [falling, partial curve, poor fit]	–
CC(=O)OCC(=O)[C@@]1(OC(C)=O)[C@@H](C)C[C@H]2[C@@H]3C[C@H](F)C4=CC(=O)C=C[C@]4(C)[C@@]3(F)[C@@H](O)C[C@@]21C	0.092 µM [rising, full curve, poor fit]	–
CCn1c(=N)n(CC(O)COc2cccc(C)c2)c2ccccc21 (centres undefined)	23.1 µM [falling, partial curve, poor fit]	–
CCSC1=C(C#N)C(=O)n2c1cc1c2CCCC1	18.4 µM [falling, single point]	–
[O-]/[N+](=C/c1ccco1)c1ccccc1	7.94 µM [falling, partial curve]	–
Cc1c2ccccc2c(C)c2c1ccc1ccccc12	10.3 µM [rising, partial curve, poor fit]	–
COc1ccc(-c2nn(-c3ccccc3C)cc2CNC(C)c2cn(C)nc2C)cc1F (centres undefined)	17.8 µM [falling, single point]	–
CCN(CC)CCCCNc1ncc2cc(-c3cc(OC)cc(OC)c3)c(NC(=O)NC(C)(C)C)nc2n1	5.62 µM [falling, full curve, poor fit]	–
O=C(Nc1cccc(Cl)c1Cl)C1CC(=O)N(c2ccc(Br)cc2)C1 (centres undefined)	29.1 µM [rising, single point]	–
Cc1ccc(Cn2nc(C)cc2C(=O)Nc2ccc(Cl)cc2)cc1	15.8 µM [falling, single point]	–
O=C(Nc1cccc(S(=O)(=O)N2CCCCC2)c1)c1ccc2ncsc2c1	4.47 µM [falling, partial curve]	–
CCCCn1c(N)c(N(CC(C)C)C(=O)C2=NN(c3ccccc3)C(=O)CC2)c(=O)[nH]c1=O	0.411 µM [rising, full curve, poor fit]	–
CCCn1nc(C(=O)N(C)CC(=O)Nc2ccc(OCC)c(OCC)c2)c2ccccc2c1=O	0.326 µM [falling, full curve, poor fit]	–
CNCc1ccccc1Sc1cc(O)ccc1O	29.1 µM [falling, single point]	23.1 µM [falling, single point]
N#CC1=C2SCN(c3ccccc3)CN2C(=O)CC1c1c(Cl)cccc1Cl (centres undefined)	–	15.8 µM [falling, single point]
CC(C)n1cnc2c(Nc3ccc(F)c(Cl)c3)nc(NCCO)nc21	15.8 µM [falling, single point]	–
CC(C)c1ccc(NC(=O)C(=O)C2C(=O)Nc3ccccc32)cc1 (centres undefined)	11.2 µM [falling, single point]	–
CN1CCN(c2ccccc2NC(=O)c2cccs2)CC1	35.5 µM [falling, partial curve, poor fit]	–
